In publication PMC3324464, “The GPI Anchor Signal Sequence Dictates the Folding and Functionality of the Als5 Adhesin from Candida albicans” (PLoS ONE, 2012):
Results are given in words; binding and its absence hold for the method and conditions named.

The chains behind the UniProt entries cited, without tags or fusion partners. Residues count along the entry.
UniProt Q5A8T7, residues 20-1327: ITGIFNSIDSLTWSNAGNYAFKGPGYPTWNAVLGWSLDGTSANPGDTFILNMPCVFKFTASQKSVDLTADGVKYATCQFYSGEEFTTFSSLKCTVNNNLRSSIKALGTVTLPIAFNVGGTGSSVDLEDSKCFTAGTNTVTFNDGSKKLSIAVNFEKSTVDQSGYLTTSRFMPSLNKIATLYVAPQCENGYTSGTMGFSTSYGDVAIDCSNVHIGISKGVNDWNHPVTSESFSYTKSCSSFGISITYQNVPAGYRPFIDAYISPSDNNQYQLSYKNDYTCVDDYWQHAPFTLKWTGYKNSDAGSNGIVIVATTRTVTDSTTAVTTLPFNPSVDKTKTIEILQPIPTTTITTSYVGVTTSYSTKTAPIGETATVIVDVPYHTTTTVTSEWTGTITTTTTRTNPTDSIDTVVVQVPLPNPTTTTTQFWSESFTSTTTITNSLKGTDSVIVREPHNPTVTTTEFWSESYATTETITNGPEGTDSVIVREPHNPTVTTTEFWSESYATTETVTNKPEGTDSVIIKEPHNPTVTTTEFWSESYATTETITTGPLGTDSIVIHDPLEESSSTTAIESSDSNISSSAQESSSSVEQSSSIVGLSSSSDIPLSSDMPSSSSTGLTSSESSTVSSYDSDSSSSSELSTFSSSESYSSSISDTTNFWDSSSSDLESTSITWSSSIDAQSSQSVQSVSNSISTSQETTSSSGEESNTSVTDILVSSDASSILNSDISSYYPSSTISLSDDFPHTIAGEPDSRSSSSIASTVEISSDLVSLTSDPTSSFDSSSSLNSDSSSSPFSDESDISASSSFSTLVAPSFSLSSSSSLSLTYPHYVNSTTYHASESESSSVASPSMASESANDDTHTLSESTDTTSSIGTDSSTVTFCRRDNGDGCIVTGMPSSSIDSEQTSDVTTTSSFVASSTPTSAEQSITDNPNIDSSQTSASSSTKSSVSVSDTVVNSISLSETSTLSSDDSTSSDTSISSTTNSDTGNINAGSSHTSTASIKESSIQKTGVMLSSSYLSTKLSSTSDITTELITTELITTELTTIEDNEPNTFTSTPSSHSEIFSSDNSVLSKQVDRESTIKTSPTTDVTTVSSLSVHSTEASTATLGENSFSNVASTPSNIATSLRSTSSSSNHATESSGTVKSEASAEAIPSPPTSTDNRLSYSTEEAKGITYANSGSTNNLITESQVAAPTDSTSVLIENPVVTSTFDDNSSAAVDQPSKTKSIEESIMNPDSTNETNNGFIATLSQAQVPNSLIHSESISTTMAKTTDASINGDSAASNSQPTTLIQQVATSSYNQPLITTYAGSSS

Biological target: GST-Als5 (Candida albicans) (UniProt Q5A8T7)
Test: other fluorescence titration; both purified

AYKSLMT (source: synthetic peptide (USV Ltd.))
binding: no binding (condition: at 4 °C)
